Experimental data: paper PMC8898369
These are yes or no findings as the source states them, for the method shown. In cells and extracts the contact can be indirect. Some entries that bind do so weakly or less than the wild type.

Chains of the proteins cited; added tags and fusions are not shown. Residues count along the entry.
UniProt P16070, residues 21-742: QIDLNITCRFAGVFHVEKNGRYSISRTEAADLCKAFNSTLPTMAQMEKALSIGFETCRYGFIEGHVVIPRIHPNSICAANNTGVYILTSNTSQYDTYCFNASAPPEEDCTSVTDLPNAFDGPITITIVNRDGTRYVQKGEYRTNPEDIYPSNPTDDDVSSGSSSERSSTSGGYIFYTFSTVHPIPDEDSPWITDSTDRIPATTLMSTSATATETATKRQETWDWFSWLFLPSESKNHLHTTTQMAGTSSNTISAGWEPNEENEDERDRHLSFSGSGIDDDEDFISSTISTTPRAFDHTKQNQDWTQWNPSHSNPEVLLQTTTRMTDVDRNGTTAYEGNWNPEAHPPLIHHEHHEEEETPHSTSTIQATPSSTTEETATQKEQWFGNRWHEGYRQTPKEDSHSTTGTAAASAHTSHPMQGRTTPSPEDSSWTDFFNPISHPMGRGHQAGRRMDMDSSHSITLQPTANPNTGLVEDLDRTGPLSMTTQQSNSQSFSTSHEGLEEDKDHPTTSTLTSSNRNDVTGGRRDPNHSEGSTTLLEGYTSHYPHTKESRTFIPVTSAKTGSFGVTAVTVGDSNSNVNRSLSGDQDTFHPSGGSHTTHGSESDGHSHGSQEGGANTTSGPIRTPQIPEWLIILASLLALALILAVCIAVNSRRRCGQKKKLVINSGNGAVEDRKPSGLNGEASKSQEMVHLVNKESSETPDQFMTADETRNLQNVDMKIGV
UniProt P98066, residues 18-277: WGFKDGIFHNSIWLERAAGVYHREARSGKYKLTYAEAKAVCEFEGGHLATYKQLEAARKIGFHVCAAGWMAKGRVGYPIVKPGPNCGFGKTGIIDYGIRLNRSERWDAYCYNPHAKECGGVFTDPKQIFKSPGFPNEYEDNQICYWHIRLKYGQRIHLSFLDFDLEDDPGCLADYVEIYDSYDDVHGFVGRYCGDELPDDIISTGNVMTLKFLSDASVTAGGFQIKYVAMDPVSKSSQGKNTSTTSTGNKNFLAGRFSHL

Columns and labels:
[1] = molecular target: CD44 (human (endogenous in CRC cells HCT116, DLD1)) (UniProt P16070); assay: co-IP; co-immunoprecipitation of TSG-6 and CD44 from CRC cells; bait, antibody and buffer not told in the main text (methods in the Supplementary Information)
[2] = molecular target: CD44 (human (endogenous in CRC cells HCT116, DLD1)) (UniProt P16070); assay: co-IP; co-immunoprecipitation of CD44 and EGFR from CRC cells transiently transfected with control vector or TSG-6 overexpressing plasmid; bait, antibody and buffer not told in the main text

| Substance | binding [1] | binding [2] |
| --- | --- | --- |
| Tumor necrosis factor α stimulated gene 6 (TSG-6) (from UniProt P98066 18-277) | binds | – |
| EGFR (from UniProt P00533 25-1210) (receptor) | – | binds |
